# Experimental data as given in patent US20210025901A1 (CALIFORNIA INSTITUTE OF TECHNOLOGY, published 2021).
# Results are given in words; binding and its absence hold for the method and conditions named. Some entries that bind do so weakly or less than the wild type. Where a sequence is shown, tags or fusion partners need not be part of it.
# T1: Full-length His-tagged IL-17F protein (ab167911, Abcam) (human) (UniProt Q96PD4)
# T1 sequence: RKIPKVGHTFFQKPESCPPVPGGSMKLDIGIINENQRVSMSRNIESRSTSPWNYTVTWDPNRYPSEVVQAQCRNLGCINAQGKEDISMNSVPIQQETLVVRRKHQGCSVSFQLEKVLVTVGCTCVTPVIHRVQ
# T2: Full-length His-tagged IL-17A protein (ab166882, Abcam) (human) (UniProt Q16552)
# T2 sequence: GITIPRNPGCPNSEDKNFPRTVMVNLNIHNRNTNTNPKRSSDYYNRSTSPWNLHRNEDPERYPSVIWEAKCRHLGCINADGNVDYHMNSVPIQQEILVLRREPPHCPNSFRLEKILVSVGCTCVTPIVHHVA
# Columns and labels:
# [1] = biological target: T1, Full-length His-tagged IL-17F protein (ab167911, Abcam) (human); test: sandwich ELISA: biotinylated ligand on NeutrAvidin plate, His-tagged IL-17F titrated up to 800 nM, anti-His-AP detection, fluorescence
# [2] = biological target: T2, Full-length His-tagged IL-17A protein (ab166882, Abcam) (human); test: point ELISA, His-IL-17A at 100 nM
# [3] = biological target: T1, Full-length His-tagged IL-17F protein (ab167911, Abcam) (human); test: point ELISA IL-17F vs IL-17A, FIG. 4B
# [4] = biological target: T2, Full-length His-tagged IL-17A protein (ab166882, Abcam) (human); test: point ELISA: ligand on NeutrAvidin plate, His-tagged protein at 100 nM, anti-His-AP detection, subtracted fluorescence
# [5] = biological target: T1, Full-length His-tagged IL-17F protein (ab167911, Abcam) (human); test: as above
# [6] = biological target: T2, Full-length His-tagged IL-17A protein (ab166882, Abcam) (human); test: point ELISA, IL17F or IL17A at 100 nM, mean subtracted fluorescence; protocol not described for this panel
# [7] = biological target: T1, Full-length His-tagged IL-17F protein (ab167911, Abcam) (human); test: as above
binding [1],binding [2],binding [3],binding [4],binding [5],binding [6],binding [7],Binder
binds,binds,binds,binds,binds,–,–,KKGWP (Cy( ) = triazole cyclization via flanking Pra and Az4 residues; Biotin-PEG3) [Biotin-PEG3-Cy(KKGWP)(SEQ ID NO:23)]
binds,binds,binds,binds,binds,binds,binds,RSYNK (Cy( ) = triazole cyclization via flanking Pra and Az4 residues; Biotin-PEG3) [Biotin-PEG3-Cy(RSYNK)(SEQ ID NO:28)]
